Source: PubChem BioAssay AID493014 (National Center for Advancing Translational Sciences (NCATS), 2011)
Some of the results follow. Shown are side measurements of this screen, not its main read-out; they come without a call. Compounds called inactive in the main read-out are mostly missing here. The note in brackets gives the kind of curve behind each potency; many fits are weak.

assay: qHTS Assay to Find Inhibitors of Chronic Active B-Cell Receptor Signaling; conditions: ABC-DLBCL IkBa-CBG/CBR reporter, luminescence ratio (green luciferase fused to IkBa over red control in TMD8 lymphoma cells), 4 h; measured here: CBR red luminescence, cell number
How it was run: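 TMD8 human ABC-DLBCL cells with doxycycline-inducible IκBα–green luciferase fusion and unfused red luciferase, in 0.5% FBS medium; compounds up to 46 uM, 4 h at 37C. Green/red luminescence ratio, filter-overlap corrected, fitted to concentration-response curves.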

SMILES | AC50
CCOc1ccc2oc(C(=O)N3CC(C)OC(C)C3)c(C)c2c1 (stereo not drawn) | 3.98 µM [rising, partial curve, poor fit]
COc1ccc(C(CCN2CCN(c3ccccc3)CC2)c2c(O)cc(OC)cc2OC)cc1 (stereo not drawn) | 0.631 µM [falling, full curve, poor fit]
CC1=C(C(=O)Nc2ccccc2)C(c2ccc(C)o2)n2c(s/c(=C/c3ccccc3)c2=O)=N1 (stereo not drawn) | 11.6 µM [rising, single point]
CCc1ccc(OCC(=O)O/N=C(\N)c2ccccn2)cc1 | 0.708 µM [rising, full curve, poor fit]
O=C(c1cc(-c2ccccc2)on1)N1CCCC1 | 2.31 µM [falling, full curve, poor fit]
O=C(c1ccco1)c1n[nH]nc1-c1ccccc1 | 3.66 µM [falling, partial curve, poor fit]
N=c1c(C(=O)NC2CCCC2)cc2c(=O)n3ccccc3nc2n1C1CCCCC1 | 3.55 µM [rising, full curve, poor fit]
CC(C)CC1CCCCC1OC(=O)C[N+]1(C)CCCCC1 (stereo not drawn) | 25.1 µM [falling, single point]
Cc1ccc(S(=O)(=O)N2CCN(C(=O)c3n[nH]c(=O)c4ccccc34)CC2)c(C)c1 | 29.1 µM [falling, single point]
COc1cc(C2C(C#N)=C(N)Oc3cc(C)oc(=O)c32)cc2c1OCO2 (stereo not drawn) | 32.6 µM [rising, single point]
C=CCC[C@H](Cc1ccc(F)cc1)C(=O)OC[C@@H](Cc1c[nH]c2ccccc12)NC(=O)[C@H](CC=C)CC(=O)N(CCO)Cc1ccccc1 | 20.6 µM [falling, partial curve, poor fit]
C/C(=N\Nc1cccc([N+](=O)[O-])c1)c1cc(F)ccc1O | 35.5 µM [falling, single point]
FC(F)(F)c1nc(-c2cccnc2)ncc1-c1nnnn1-c1ccccc1 | 35.5 µM [falling, single point]
Cc1nnc(SCC(=O)Nc2cccnc2Cl)s1 | 0.461 µM [rising, full curve, poor fit]
Cc1cc(C(=O)N/N=C/c2ccccc2)c(C)o1 | 7.94 µM [falling, partial curve, poor fit]
CN(C)CC1CCCCC1C1(O)c2ccccc2CSc2sccc21 (stereo not drawn) | 29.1 µM [falling, single point]
O=C(CSc1ncccn1)n1c2c(c3ccccc31)CCCC2 | 25.1 µM [falling, single point]
OCCN(CCO)CC(O)COCCC12CC3CC(CC(C3)C1)C2 (stereo not drawn) | 4.11 µM [rising, single point]
